No constants are given. Whether binding was seen depends on the method and setting. Binding seen in cells or lysates may run through a third protein. Some binding calls cover weakened binding; strength is not graded here. Tags and fused reporters may be left off the sequences shown.

By UniProt entry, the sequences of proteins in these tests, tags left out.
UniProt P52480: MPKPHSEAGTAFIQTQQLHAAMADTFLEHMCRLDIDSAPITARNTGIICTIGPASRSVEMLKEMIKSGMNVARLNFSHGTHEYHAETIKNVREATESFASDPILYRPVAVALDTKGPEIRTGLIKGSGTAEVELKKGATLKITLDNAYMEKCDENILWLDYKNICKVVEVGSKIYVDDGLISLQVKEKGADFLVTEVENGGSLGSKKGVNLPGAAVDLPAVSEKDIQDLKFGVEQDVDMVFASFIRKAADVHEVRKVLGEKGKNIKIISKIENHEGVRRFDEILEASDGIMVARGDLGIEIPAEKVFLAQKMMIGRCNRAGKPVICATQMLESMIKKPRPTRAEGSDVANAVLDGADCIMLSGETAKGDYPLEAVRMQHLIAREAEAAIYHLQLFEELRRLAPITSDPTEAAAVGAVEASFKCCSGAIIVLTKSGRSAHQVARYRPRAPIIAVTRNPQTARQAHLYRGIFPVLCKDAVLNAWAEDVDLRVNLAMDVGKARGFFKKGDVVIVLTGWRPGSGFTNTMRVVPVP

The values that follow come from article PMC11119796.

The test concerns the target T1, ISLR-GFP (immunoglobulin superfamily containing leucine-rich repeat, GFP-tagged) (UniProt Q6GU68).
T1 sequence: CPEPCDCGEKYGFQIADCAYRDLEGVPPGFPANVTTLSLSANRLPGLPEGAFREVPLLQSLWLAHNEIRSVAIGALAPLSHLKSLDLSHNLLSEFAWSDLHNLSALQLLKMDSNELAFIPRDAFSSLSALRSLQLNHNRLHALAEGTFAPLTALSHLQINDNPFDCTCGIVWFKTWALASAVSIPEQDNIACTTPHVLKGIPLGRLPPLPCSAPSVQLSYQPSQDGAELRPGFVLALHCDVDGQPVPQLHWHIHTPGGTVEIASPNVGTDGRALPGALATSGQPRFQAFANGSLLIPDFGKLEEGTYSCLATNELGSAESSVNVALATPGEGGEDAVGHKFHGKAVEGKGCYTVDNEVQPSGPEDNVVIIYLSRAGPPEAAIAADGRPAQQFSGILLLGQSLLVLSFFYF
Nature of the test: co-IP; HEK293T cells transfected with ISLR-GFP and PKM2-Flag, cultured 2 d; Flag antibody or ISLR antibody as the bait; Western blot; also under H2O2 treatment (Figure S3A).

As to “PKM2-Flag (pyruvate kinase isozyme M2, Flag-tagged) (from UniProt P52480 1-531) (enzyme)”, the binding entry is on record as “binds”.
